# Measured values reported in PubChem BioAssay AID651956 (Broad Institute, 2012).
# The shares of active, inactive and inconclusive entries below differ from those in the screen. Activity calls are given as the source filed them.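 How the source made its calls: active means in every test run, a fitted half-maximal concentration for signal decrease at or below twice the highest tested concentration; inconclusive means runs disagree, flat 30 to 70% decrease, or poor fit; inactive means the rest.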
# Experiment: miR-122 activators in hepatoma reporter cells, dose response, cell-based, Huh7 psiCHECK-miR122, Renilla luciferase, cherry-picked (AID 651956);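 further: Renilla luciferase from a miR-122 sensor reporter so lower signal means miR-122 activation; 0% = median neutral control wells and -100% = median positive control wells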
# Conditions: 48 h; at 35 µM (top of the series) unless noted
row,SMILES,"activity change, negative = signal decrease"
1,O=C(c1cccnc1)N1C[C@H]2[C@@H](c3ccccc31)[C@H](CO)N2C(=O)Nc1ccccc1Cl,inconclusive: -50.8%
2,CCC(=O)N1[C@H](CN(CC)C(=O)c2ccccc2)[C@@H](c2ccccc2)[C@@H]1CO,inconclusive: -37.5%
3,COc1cccc(C(=O)Nc2ccc3c(c2)C(=O)N(C)[C@@H]2CC[C@@H](CC(=O)N[C@H](C)c4ccccc4)O[C@@H]2CO3)c1,inconclusive: -41.9%
4,CN(C)CCCNC(=O)C[C@@H]1CC[C@@H]2[C@@H](COc3ccc(NC(=O)NC4CCCC4)cc3C(=O)N2C)O1,inconclusive: -29.2%
5,O=C(N[C@H]1CC[C@H](CCn2cc(C3(O)CCCC3)nn2)O[C@H]1CO)c1ccccc1F,inactive: -22.4%
6,CCNC(=O)Nc1ccc2c(c1)C(=O)N(C)[C@H]1CC[C@H](CC(=O)Nc3ccccc3F)O[C@@H]1CO2,inactive: 74.2%
7,C[C@H]1CCCCO[C@@H](CN(C)CC2CCCCC2)[C@@H](C)CN([C@@H](C)CO)C(=O)c2cc(NC(=O)Nc3cccc4ccccc34)ccc2O1,inconclusive: -129%
8,CN1C(=O)c2cc(NS(C)(=O)=O)ccc2OC[C@@H]2O[C@H](CC(=O)O)CC[C@H]21,inconclusive: -32.7%
9,O=C(NCC(c1cccnc1)N1CCOCC1)NC1CCCCC1 (stereo not given),inactive: -10.8%
10,O=C(CC(F)(F)F)N1C[C@H]2[C@@H](c3ccccc31)[C@H](CO)N2C(=O)Cc1cccnc1,inconclusive: -72.4%
11,CN(C[C@@H]1[C@@H](c2ccccc2)[C@H](CO)N1C(=O)C1CCC1)C(=O)c1ccccn1,inconclusive: -66.7%
12,CCCNC(=O)Nc1ccc2c(c1)C(=O)N(C)[C@H]1CC[C@@H](CC(=O)NCC3CCCCC3)O[C@@H]1CO2,inconclusive: -49.9%
13,O=C(Nc1ccccc1)N1C[C@@H]2[C@H](c3ccccc31)[C@H](CO)N2C(=O)c1ccncc1,inconclusive: -36.9%
14,O=C(NC[C@H]1[C@@H](c2ccccc2)[C@@H](CO)N1CC1CCCC1)c1ccncc1,inconclusive: -26.7%
15,CCC(=O)NC[C@@H]1[C@@H](c2ccc(C3=CCCC3)cc2)[C@@H](CO)N1C(C)=O,inconclusive: -30.3%
16,CN1C(=O)c2cc(NC(=O)c3ccc(F)cc3)ccc2OC[C@@H]2O[C@@H](CC(=O)O)CC[C@@H]21,inconclusive: -42.6%
17,COCC(=O)N1C[C@H]2[C@@H](c3ccccc31)[C@H](CO)N2C(=O)Nc1ccccc1Cl,inconclusive: -29.4%
18,CNC(=O)C[C@H]1CC[C@H]2[C@@H](COc3ccc(NC(=O)c4cccc(OC)c4)cc3C(=O)N2C)O1,inconclusive: -24.9%

# Some values from the results shown:
# activity change, negative = signal decrease, `CN1C(=O)c2cc(NC(=O)c3ccc(F)cc3)ccc2OC[C@@H]2O[C@@H](CC(=O)O)CC[C@@H]21` reads inconclusive: -42.6%
# activity change, negative = signal decrease, `O=C(CC(F)(F)F)N1C[C@H]2[C@@H](c3ccccc31)[C@H](CO)N2C(=O)Cc1cccnc1` reads inconclusive: -72.4%

# Later entries

row,SMILES,"activity change, negative = signal decrease"
1,CCOC(=O)c1ccc(NC(=O)c2ccc(CN3CCOCC3)cc2)cc1,inconclusive: -34.8%
2,Cc1ccccc1-c1ccc([C@@H]2[C@@H](CO)N3CCCCN(C(=O)Nc4ccc(F)cc4)C[C@@H]23)cc1,inconclusive: -92.2%
3,O=C(C1CCCC1)N1C[C@H]2[C@@H](c3ccccc31)[C@H](CO)N2C(=O)Nc1cccc(F)c1,inconclusive: -38.3%
4,CN1C(=O)c2cc(NC(=O)c3cccc(F)c3)ccc2OC[C@H]2O[C@@H](CC(=O)NC3CCC3)CC[C@H]21,inconclusive: -44.2%
5,CCCC(=O)Nc1ccc2c(c1)C(=O)N(C)[C@@H]1CC[C@H](CC(=O)Nc3cn(C)nc3C)O[C@@H]1CO2,inactive: -22.3%
6,Oc1ccccc1/C=N/Nc1nc2ccccc2o1,inconclusive: -48.4%
7,O=C(Nc1ccc(Cl)c(C(F)(F)F)c1)c1ccco1,inactive: 57.4%
8,CNC(=O)C[C@@H]1CC[C@@H]2[C@@H](COc3ccc(NC(=O)Nc4ccccc4OC)cc3C(=O)N2C)O1,inconclusive: -56.7%
9,CC(=O)Nc1ccc2c(c1)C(=O)N(C)[C@@H]1CC[C@H](CC(=O)NCCCN3CCOCC3)O[C@@H]1CO2,inconclusive: -33.2%
10,CN1C[C@@H]2[C@H](c3ccccc31)[C@@H](CO)N2C(=O)Nc1ccccc1,inconclusive: -56.2%
11,C[C@@H]1CN([C@@H](C)CO)C(=O)c2cccc(NS(C)(=O)=O)c2O[C@H]1CN(C)S(=O)(=O)c1ccc(Cl)cc1,inconclusive: -27.5%
12,C/C=C/c1ccc([C@H]2[C@@H](CNC(=O)CC)N(Cc3ccccn3)[C@H]2CO)cc1,inconclusive: -7.53%
13,CN1C(=O)c2cc(NC(=O)c3cccc(F)c3)ccc2OC[C@H]2O[C@H](CC(=O)O)CC[C@@H]21,inconclusive: -33.2%
14,Cc1ccc(Nc2c(-c3ccccn3)nc3cc(C)ccn23)cc1,inactive: -26.2%
15,CN1C(=O)c2cc(NC(=O)c3cccc(F)c3)ccc2OC[C@@H]2O[C@@H](CC(=O)NC3CCC3)CC[C@H]21,inconclusive: -41.7%
16,CN1C(=O)c2cc(NC(=O)c3cccs3)ccc2OC[C@H]2O[C@H](CC(=O)NCC(F)(F)F)CC[C@H]21,inconclusive: -34.4%
17,CCN(CC)S(=O)(=O)c1ccc(NC(=O)Nc2cccc(C(F)(F)F)c2)cc1,inactive: 146%
